Source: article PMC5187411
Results are given in words; binding and its absence hold for the method and conditions named. Binding seen in cells or lysates may run through a third protein. Here binding means that the protein was enriched with, or labelled near, the bait; the list need not be complete. For part of these data: No binding means not detected with the bait.

Sequences of proteins named here, by UniProt entry; tags and fusion partners are left off. A change or cut given only in a name is not applied to a line headed by its entry.
UniProt Q388W2: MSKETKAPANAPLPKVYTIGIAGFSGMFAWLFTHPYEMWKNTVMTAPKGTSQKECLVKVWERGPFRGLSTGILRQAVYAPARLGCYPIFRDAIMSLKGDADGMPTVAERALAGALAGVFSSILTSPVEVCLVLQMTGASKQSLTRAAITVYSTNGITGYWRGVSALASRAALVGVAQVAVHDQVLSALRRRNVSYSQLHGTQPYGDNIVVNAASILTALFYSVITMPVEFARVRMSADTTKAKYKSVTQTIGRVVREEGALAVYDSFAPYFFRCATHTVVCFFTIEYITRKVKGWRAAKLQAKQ
UniProt Q38DQ3: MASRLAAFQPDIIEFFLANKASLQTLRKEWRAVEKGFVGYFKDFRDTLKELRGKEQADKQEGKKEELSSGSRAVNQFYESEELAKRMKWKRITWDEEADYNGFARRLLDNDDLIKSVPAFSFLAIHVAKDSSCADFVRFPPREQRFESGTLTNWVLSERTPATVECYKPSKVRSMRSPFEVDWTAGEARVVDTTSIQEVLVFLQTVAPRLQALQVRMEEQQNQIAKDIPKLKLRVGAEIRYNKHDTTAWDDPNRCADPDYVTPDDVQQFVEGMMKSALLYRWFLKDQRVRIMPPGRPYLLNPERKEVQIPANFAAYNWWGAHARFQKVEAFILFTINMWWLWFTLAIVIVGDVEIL
UniProt Q389I9: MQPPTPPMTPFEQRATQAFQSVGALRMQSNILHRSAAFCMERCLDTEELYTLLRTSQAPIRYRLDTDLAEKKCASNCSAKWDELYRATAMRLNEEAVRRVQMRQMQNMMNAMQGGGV
UniProt Q585K7: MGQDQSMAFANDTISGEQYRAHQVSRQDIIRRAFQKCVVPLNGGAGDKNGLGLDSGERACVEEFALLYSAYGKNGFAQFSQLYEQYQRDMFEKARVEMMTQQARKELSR
UniProt Q581D5: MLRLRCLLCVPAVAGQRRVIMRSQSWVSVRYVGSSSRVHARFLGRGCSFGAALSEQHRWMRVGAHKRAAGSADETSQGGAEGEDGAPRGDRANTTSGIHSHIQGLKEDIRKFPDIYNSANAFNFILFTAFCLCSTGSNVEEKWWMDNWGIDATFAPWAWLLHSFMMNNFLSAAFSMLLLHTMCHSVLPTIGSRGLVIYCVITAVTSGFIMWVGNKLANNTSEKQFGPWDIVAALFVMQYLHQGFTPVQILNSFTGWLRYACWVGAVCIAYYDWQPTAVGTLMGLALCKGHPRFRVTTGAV
UniProt Q38ED9: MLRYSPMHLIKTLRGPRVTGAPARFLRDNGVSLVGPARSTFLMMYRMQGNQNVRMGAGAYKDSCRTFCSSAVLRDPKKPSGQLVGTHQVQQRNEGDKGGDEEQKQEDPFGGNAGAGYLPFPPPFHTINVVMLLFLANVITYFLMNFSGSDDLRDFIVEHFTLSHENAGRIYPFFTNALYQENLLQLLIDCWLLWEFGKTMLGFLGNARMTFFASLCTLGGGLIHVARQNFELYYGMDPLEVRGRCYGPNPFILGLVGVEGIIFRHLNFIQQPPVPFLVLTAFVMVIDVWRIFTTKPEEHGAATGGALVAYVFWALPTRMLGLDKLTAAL
UniProt Q57X55: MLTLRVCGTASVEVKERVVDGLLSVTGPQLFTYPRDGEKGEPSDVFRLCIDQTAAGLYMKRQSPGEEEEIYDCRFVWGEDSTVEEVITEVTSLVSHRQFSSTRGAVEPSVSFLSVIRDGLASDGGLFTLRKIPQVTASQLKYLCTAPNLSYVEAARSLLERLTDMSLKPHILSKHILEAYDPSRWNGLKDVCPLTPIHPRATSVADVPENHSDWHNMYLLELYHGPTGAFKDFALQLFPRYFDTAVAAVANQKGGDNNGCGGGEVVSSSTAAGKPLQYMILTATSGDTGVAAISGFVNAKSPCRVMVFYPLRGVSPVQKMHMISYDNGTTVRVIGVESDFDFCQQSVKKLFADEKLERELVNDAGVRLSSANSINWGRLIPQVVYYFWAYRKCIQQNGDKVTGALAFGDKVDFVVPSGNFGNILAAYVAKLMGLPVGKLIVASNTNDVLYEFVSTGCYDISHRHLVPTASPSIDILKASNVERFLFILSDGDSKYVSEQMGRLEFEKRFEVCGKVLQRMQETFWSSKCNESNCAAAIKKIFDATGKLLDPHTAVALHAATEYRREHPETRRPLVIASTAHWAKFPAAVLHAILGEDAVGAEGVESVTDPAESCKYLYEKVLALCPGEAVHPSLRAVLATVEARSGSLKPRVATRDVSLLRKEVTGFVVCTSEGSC

Assays:
[1] = target: C-terminally myc-tagged MCP12 lacking the first module (T. brucei) (UniProt Q388W2); test: affinity purification with mass spectrometry; SILAC-IP on anti-myc resin from digitonin-solubilized mitochondrial extracts of differentially labelled cells expressing MCP12-ΔI against MCP12-FL; cutoff fivefold; three replicates
[2] = target: C-terminally triple HA-tagged TbTim42 (T. brucei) (UniProt Q38DQ3); test: affinity purification with mass spectrometry; SILAC-IP of tagged TbTim17, TbTim42 or TbTim13 on anti-c-myc or anti-HA resin; induced against uninduced cells mixed 1:1; crude mitochondrial fractions solubilized in 1% digitonin, 20 mM Tris-HCl pH 7.4, 0.1 mM EDTA, 100 mM NaCl, 10% glycerol, 4 °C; three replicates
[3] = target: C-terminally triple HA-tagged TbTim13 (T. brucei) (UniProt Q389I9); test: as above

| Substance | binding [1] | binding [2] | binding [3] |
| --- | --- | --- | --- |
| Tb927.4.3430 (from UniProt Q585K7) | binds | – | – |
| TbTim13 (from UniProt Q389I9) | binds | binds | – |
| TimRhom II (from UniProt Q581D5) | no binding | binds | binds |

Other lines, results leading:

| binding [1] | binding [2] | binding [3] | Substance |
| --- | --- | --- | --- |
| binds | – | binds | TbTim42 (from UniProt Q38DQ3) |
| no binding | binds | binds | TimRhom I (from UniProt Q38ED9) |
| binds | – | – | putative threonine synthase (Tb927.7.4390) (from UniProt Q57X55) |
